Assay: general procedure: Fmoc solid-phase peptide synthesis; Rink amide MBHA; PyBroP/DIEA; triphosgene/collidine for Fmoc-Cys(Acm)-OH
Details: whole synthesis, scale 0.55 mmol, cyclic, sequence written open

MAG3-PheC3-Cys-Phe-(D)Trp-Lys-Thr-Cys-PheN3-NH2
isolated yield (from resin): 2.1% | crude mass: 191 mg | isolated mass: 12.2 mg
